The text below walks through data of publication doi:10.1101/2024.03.28.587165.

Amino acid sequences for entries named in this document (tags omitted). A change or cut given only in a name is not applied to a line headed by its entry.
UniProt Q9SAF2: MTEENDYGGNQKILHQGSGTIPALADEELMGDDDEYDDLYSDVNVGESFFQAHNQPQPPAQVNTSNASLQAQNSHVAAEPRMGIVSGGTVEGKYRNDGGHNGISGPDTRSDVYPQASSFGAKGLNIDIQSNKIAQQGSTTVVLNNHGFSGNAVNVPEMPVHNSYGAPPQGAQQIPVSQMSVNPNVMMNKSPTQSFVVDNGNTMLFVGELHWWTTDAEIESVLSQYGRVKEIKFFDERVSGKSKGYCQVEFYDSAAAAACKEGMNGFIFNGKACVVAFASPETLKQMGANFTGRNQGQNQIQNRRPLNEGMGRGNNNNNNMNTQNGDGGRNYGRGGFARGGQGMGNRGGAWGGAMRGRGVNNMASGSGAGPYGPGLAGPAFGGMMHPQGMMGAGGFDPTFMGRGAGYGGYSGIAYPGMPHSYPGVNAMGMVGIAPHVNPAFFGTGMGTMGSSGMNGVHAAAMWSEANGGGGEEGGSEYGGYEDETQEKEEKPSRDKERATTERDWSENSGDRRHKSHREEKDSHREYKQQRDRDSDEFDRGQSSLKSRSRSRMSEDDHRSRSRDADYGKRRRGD
UniProt Q8GXS3: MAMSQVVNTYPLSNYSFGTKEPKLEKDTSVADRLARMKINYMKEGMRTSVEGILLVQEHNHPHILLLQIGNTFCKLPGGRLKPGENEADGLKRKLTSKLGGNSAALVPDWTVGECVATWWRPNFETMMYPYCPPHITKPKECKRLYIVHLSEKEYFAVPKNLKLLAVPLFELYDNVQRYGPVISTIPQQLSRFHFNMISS

These are yes or no findings as the source states them, for the method shown. A result given as binding can be weak or reduced; the word gives no strength.

This test deals with GST-tagged AtCFI59 (Arabidopsis thaliana) (UniProt Q9SAF2). Description: pull-down.

On to “HIS-tagged AtCFI25a (from UniProt Q8GXS3)”, for which the binding result is listed as “binds”.
